Experiment [1] addresses Dihydroorotate dehydrogenase (DHODH) (human (endogenous in Huh7)) (UniProt Q02127). Put plainly: co-IP; Huh7 cells expressing WT, S704A or S704D LOXL3-FLAG, treated with MG132 for 12 h.
In experiment [2] the target is TOM20 (receptor of the translocase of the outer mitochondrial membrane complex) (human (endogenous in Huh7)) (UniProt Q15388). The experiment in a line: co-IP; Huh7 cells stably expressing WT, 1-40 deleted or K35/36A LOXL3-FLAG, starved for over 12 h and treated with EGF for half an hour.

Amino acid sequences for entries named in this document (tags omitted). A change or cut given only in a name is not applied to a line headed by its entry.
UniProt Q02127: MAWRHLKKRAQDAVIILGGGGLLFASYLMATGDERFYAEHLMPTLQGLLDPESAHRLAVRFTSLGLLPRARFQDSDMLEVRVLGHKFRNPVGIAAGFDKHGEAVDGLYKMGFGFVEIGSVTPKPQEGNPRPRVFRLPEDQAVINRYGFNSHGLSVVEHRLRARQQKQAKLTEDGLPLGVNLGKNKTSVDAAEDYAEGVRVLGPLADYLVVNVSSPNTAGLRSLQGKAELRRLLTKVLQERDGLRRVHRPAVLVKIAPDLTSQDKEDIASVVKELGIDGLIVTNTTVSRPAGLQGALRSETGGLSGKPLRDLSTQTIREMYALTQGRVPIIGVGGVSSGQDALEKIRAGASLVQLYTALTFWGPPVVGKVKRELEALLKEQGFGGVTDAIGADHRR
UniProt Q15388: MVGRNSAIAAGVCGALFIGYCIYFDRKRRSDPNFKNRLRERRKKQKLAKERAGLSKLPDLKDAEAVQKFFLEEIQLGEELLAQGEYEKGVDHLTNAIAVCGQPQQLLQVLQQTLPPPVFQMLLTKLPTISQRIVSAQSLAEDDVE
UniProt P58215: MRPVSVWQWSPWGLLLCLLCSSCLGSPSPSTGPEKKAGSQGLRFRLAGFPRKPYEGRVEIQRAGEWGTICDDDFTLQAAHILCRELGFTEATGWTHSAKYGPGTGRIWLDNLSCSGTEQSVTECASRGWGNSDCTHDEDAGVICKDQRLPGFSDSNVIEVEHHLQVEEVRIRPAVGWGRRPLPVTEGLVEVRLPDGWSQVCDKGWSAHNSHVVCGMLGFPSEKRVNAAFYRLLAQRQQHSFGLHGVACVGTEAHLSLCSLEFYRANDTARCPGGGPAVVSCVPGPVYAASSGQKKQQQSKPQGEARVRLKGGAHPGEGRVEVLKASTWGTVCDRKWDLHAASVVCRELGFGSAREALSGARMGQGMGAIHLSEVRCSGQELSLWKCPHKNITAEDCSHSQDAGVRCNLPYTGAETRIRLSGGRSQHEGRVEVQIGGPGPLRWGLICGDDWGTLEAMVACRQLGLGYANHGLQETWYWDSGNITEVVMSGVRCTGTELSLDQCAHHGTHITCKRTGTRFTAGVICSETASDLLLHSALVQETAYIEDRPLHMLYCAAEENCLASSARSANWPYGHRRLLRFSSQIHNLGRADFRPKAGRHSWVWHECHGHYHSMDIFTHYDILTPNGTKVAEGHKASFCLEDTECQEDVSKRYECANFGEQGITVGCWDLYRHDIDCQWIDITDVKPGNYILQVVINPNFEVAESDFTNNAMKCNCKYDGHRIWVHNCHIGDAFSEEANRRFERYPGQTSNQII

These are yes or no findings as the source states them, for the method shown. In cells and extracts the contact can be indirect. Binding can be weak; no strength is given.

WT LOXL3-FLAG (from UniProt P58215): the binding result in experiment [1] and in experiment [2] was “binds” each time.

(Values after paper PMC10229567.)
